Results are given in words; binding and its absence hold for the method and conditions named. Some binding calls cover weakened binding; strength is not graded here.

The results in this text go back to patent US20060292634A1.

This experiment addresses chicken lysozyme (chicken) (UniProt P00698). Briefly: ELISA.

B1: iMab122 (designed binder, not shown: small tags and cut ends)
chain: NVKLVEKGGNFVENDDDLKLTCRASGRTFSSRTMGWFRQAPNDDSTNVATIRWNGGSTYYTNYGDSVKERFDIRVDQASNTVTLSMDDLQPEDSAEYNCAGTDIGDGWSGRYDYRGQGTDVTVSS
For the molecule B1, the binding entry was “binds”.

B2: iMab701 (designed binder)
chain: MASTITCEASGYTIGPACVAFDTTLGNNMGTYSAPLTSTTLGVATVTCAADSTIYASYYECGHGLSTGGYGYAAFSVPSVTVNFTA
For the molecule B2, the binding entry was “binds”.

B3: iMab1200 (designed binder)
chain: HGLPMEKRGNFIVGQNCSLTCPASGYTIGPQCVFNCYFNSALAFSTENMGEWTLDMVFSDAGIYTMCAADSTIYASYYECGHGLSTGGYGYNPVSLGSFVVDSP
Regarding B3, the binding entry is listed as “binds”.
